For 8 substances, step yield and cyclisation yield results are on record in US11382949B2 (BOEHRINGER INGELHEIM ANIMAL HEALTH USA INC., priority 2016, dated 2022).

The data set is described as follows: general procedure: solution-phase peptide synthesis; BOP-Cl, DIEA. As to conditions: for cyclisation yield: cyclisation step.
The mark [1] stands for this setting: late stage modification step, hydrochloride.

As to “(6S,9R,12S,15R,18R,21R,24S,27R)-12,24-bis(2-fluoro-2-methylpropyl)-6,18-diisobutyl-2,2,5,9,11,17,21,23-octamethyl-4,7,10,13,16,19,22,25-octaoxo-15,27-bis(4-(trifluoromethoxy)benzyl)-3,8,14,20,26-pentaoxa-5,11,17,23-tetraazaoctacosan-28-oic acid”, the step yield (late stage modification step) was determined as 71%.
The same measure, in the same setting: as for “(2R)-2-[(2S)-2-[[(2R)-2-[(2S)-2-[tert-butoxycarbonyl(methyl)amino]-4,4-dimethyl-pentanoyl]oxypropanoyl]-methyl-amino]-4-fluoro-4-methyl-pentanoyl]oxy-3-[4-(trifluoromethylsulfanyl)phenyl]propanoic Acid (TC44-46)”, the figure is 99%.
As for “(S)-((R)-1-(benzyloxy)-1-oxo-3-(4-(trifluoromethylthio)phenyl)propan-2-yl)-2-((R)-2-((S)-4,4-dimethyl-2-(methylamino)pentanoyloxy)-N-methylpropanamido)-4-fluoro-4-methylpentanoate Hydrochloride (TA44-46)”, under setting [1], the step yield was found to be 97%.
As for “(6S,9R,12S,15S)-12-(2-fluoro-2-methylpropyl)-2,2,5,9,11-pentamethyl-6-neopentyl-4,7,10,13-tetraoxo-15-(4-(trifluoromethylthio)benzyl)-3,8,14-trioxa-5,11-diazahexadecan-16-oic Acid”, the step yield (late stage modification step) was determined as 98%.
Where the note is “coupling step”, “(1R)-1-[[(2S)-1-[[(2R)-1-(benzyloxy)-1-oxo-3-[4-(trifluoromethoxy)phenyl]propan-2-yl]oxy]-4-fluoro-4-methyl-1-oxopentan-2-yl](methyl)carbamoyl]ethyl (2R)-2-[[(tert-butoxy)carbonyl](methyl)amino]-4-methylpentanoate” gave a step yield of 67%.
For the substance “(1R)-1-[[(2S)-1-[[(2R)-1-(benzyloxy)-1-oxo-3-[4-(trifluoromethoxy)phenyl]propan-2-yl]oxy]-4-fluoro-4-methyl-1-oxopentan-2-yl](methyl)carbamoyl]ethyl (2R)-4-methyl-2-(methylamino)pentanoate Hydro-chloride”, the step yield under setting [1] is recorded as 93%.
As for “(3S,6R,9S,12R,15S,18R,21S,24R)-3,15-bis(2-fluoro-2-methylpropyl)-4,6,10,16,18,22-hexamethyl-9,21-dineopentyl-12,24-bis(4-(trifluoromethylthio)benzyl)-1,7,13,19-tetraoxa-4,10,16,22-tetraazacyclotetracosan-2,5,8,11,14,17,20,23-octaone”, the cyclisation yield stood at 37%.
Same read-out and setting: as for “(3S,6R,9S,12S,15S,18R,21S,24S)-3,15-bis(2-fluoro-2-methylpropyl)-4,6,10,16,18,22-hexamethyl-9,21-dineopentyl-12,24-bis(4-(trifluoromethylthio)benzyl)-1,7,13,19-tetraoxa-4,10,16,22-tetraazacyclotetracosan-2,5,8,11,14,17,20,23-octaone”, the figure is 20%.
